Results are given in words; binding and its absence hold for the method and conditions named. Some binding calls cover weakened binding; strength is not graded here.
T1: Murine Nectin-4 (mouse) (UniProt Q8R007)
T1 sequence: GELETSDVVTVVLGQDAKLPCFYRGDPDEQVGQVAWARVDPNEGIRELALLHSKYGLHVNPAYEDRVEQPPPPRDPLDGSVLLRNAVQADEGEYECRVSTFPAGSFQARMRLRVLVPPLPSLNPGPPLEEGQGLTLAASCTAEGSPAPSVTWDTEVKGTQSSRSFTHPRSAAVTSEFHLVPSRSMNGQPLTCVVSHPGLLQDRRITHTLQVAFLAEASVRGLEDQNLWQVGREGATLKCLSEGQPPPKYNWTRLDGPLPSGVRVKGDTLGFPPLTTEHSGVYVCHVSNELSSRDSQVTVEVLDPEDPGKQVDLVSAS

T2: Human Nectin-4 (human, UniProt Q96NY8 32-349, limits assumed)
T2 construct: Amine-coupled to the Biacore chip; also called target protein; ligand
T2 sequence: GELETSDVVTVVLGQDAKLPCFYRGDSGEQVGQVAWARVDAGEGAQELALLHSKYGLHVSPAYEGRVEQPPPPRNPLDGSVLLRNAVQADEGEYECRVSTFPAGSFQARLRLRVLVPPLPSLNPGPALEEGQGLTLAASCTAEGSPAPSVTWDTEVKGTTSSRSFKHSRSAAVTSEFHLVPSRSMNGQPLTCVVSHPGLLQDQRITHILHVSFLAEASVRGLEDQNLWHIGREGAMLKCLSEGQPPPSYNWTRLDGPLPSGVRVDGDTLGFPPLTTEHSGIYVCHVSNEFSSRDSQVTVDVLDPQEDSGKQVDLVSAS

B1: C9 (designed binder)
chain: CEYDEEFFAGLKRLRGGDICYYIKKKFDKVPDLCIEEILDKLGC
modifications: N-terminus ACETYL; C-terminus OH; disulfides Cys1-Cys34, Cys20-Cys44
B2: C12 (designed binder)
chain: B1 chain
modifications: N-terminus DOTA-PEG4; C-terminus OH; disulfides Cys1-Cys34, Cys20-Cys44
B3: C91 (designed binder)
chain: B1 chain
modifications: N-terminus 138La-DOTA-PEG4; C-terminus OH; disulfides Cys1-Cys34, Cys20-Cys44

These binders were tested against T1, Murine Nectin-4 (mouse) (assay: SPR (Biacore), Nectin-4 amine-coupled to the chip, compound as analyte, 25 deg C, fitted with a 1:1 binding model).

binding | Binder
binds | B1
binds | B2
binds | B3

What follows are binders tested against T2, Human Nectin-4 in the same assay as above.

binding | Binder
binds | B1
binds | B2
binds | B3
